These are yes or no findings as the source states them, for the method shown. In cells and extracts the contact can be indirect. Binding calls can cover weak binding; strength is not graded here. Where a sequence is shown, tags or fusion partners need not be part of it.
Molecular target: TaTDRL-nEYFP (full-length TaTDRL with the N-terminal part of enhanced YFP) (wheat (Triticum aestivum L.))
Test: split reporter; BiFC: nEYFP and cEYFP fusions, Agrobacterium cells mixed 1:1 and infiltrated into tobacco leaves; confocal microscopy; signal in the nucleus

- binding: binds
B1: AtPIF1-cEYFP (full-length AtPIF1 with the C-terminal part of enhanced YFP) (protein, UniProt Q8GZM7 1-478)
chain: MHHFVPDFDTDDDYVNNHNSSLNHLPRKSITTMGEDDDLMELLWQNGQVVVQNQRLHTKKPSSSPPKLLPSMDPQQQPSSDQNLFIQEDEMTSWLHYPLRDDDFCSDLLFSAAPTATATATVSQVTAARPPVSSTNESRPPVRNFMNFSRLRGDFNNGRGGESGPLLSKAVVRESTQVSPSATPSAAASESGLTRRTDGTDSSAVAGGGAYNRKGKAVAMTAPAIEITGTSSSVVSKSEIEPEKTNVDDRKRKEREATTTDETESRSEETKQARVSTTSTKRSRAAEVHNLSERKRRDRINERMKALQELIPRCNKSDKASMLDEAIEYMKSLQLQIQMMSMGCGMMPMMYPGMQQYMPHMAMGMGMNQPIPPPSFMPFPNMLAAQRPLPTQTHMAGSGPQYPVHASDPSRVFVPNQQYDPTSGQPQYPAGYTDPYQQFRGLHPTQPPQFQNQATSYPSSSRVSSSKESEDHGNHTTG

From article PMC7014150
